# From the supplement of paper PMC10849652
# The chains behind the UniProt entries cited, without tags or fusion partners. Where a name states a change or a piece, a line headed by the entry shows the natural chain unless it says otherwise.
# UniProt Q8IW75: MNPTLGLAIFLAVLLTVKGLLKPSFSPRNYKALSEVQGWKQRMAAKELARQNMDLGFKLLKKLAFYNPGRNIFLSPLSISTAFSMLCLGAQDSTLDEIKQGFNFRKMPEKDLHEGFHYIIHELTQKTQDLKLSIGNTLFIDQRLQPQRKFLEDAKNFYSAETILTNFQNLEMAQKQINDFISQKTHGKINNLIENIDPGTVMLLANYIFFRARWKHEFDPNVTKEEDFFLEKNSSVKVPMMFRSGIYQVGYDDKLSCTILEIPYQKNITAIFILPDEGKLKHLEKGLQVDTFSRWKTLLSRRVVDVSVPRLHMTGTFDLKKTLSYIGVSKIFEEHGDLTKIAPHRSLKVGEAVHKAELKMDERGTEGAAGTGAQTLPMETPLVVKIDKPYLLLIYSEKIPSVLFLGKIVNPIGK
# UniProt Q562F6: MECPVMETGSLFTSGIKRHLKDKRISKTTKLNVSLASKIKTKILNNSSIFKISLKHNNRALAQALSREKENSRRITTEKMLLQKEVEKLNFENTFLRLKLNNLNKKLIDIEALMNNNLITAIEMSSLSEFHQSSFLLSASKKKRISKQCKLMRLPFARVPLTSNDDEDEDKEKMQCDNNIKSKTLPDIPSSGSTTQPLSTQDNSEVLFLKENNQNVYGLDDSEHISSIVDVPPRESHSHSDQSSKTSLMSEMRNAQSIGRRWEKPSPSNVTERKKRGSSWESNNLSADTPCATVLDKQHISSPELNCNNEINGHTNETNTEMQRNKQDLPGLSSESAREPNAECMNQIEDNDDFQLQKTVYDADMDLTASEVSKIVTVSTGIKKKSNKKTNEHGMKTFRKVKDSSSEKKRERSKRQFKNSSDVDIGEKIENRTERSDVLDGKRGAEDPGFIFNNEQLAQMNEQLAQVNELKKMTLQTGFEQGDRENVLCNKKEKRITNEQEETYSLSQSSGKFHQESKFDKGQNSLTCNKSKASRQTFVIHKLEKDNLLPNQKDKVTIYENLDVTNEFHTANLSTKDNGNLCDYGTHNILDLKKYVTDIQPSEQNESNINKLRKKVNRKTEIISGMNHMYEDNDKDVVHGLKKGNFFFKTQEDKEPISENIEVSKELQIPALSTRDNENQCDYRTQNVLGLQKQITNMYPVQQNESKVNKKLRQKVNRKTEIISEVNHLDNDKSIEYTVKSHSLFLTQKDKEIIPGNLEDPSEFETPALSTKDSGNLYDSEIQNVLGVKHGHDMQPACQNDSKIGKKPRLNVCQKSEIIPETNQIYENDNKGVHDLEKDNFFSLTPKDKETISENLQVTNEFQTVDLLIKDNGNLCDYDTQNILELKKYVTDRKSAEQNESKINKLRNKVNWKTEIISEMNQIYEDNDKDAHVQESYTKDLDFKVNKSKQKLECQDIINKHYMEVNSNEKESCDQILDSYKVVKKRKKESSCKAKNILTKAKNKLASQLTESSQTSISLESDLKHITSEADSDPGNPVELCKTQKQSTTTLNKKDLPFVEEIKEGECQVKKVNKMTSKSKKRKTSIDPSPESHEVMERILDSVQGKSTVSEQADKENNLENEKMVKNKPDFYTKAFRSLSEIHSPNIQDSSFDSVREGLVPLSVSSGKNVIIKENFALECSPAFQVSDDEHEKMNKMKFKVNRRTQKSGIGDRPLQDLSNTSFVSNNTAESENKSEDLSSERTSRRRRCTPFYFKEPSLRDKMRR
# UniProt Q15464: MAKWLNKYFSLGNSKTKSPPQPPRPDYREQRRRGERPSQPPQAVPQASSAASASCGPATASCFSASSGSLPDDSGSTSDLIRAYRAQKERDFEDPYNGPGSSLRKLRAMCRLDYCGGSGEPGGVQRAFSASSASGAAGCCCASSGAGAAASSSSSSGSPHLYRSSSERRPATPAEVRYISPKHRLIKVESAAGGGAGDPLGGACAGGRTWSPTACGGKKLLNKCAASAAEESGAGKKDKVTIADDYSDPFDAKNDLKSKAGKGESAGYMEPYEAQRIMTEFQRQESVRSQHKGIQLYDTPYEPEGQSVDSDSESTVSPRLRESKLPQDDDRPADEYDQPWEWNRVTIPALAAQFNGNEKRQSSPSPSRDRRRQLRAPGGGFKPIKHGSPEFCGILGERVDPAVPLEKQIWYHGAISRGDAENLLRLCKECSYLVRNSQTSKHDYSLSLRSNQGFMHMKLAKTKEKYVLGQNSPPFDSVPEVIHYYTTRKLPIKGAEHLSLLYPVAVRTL
# UniProt O75182: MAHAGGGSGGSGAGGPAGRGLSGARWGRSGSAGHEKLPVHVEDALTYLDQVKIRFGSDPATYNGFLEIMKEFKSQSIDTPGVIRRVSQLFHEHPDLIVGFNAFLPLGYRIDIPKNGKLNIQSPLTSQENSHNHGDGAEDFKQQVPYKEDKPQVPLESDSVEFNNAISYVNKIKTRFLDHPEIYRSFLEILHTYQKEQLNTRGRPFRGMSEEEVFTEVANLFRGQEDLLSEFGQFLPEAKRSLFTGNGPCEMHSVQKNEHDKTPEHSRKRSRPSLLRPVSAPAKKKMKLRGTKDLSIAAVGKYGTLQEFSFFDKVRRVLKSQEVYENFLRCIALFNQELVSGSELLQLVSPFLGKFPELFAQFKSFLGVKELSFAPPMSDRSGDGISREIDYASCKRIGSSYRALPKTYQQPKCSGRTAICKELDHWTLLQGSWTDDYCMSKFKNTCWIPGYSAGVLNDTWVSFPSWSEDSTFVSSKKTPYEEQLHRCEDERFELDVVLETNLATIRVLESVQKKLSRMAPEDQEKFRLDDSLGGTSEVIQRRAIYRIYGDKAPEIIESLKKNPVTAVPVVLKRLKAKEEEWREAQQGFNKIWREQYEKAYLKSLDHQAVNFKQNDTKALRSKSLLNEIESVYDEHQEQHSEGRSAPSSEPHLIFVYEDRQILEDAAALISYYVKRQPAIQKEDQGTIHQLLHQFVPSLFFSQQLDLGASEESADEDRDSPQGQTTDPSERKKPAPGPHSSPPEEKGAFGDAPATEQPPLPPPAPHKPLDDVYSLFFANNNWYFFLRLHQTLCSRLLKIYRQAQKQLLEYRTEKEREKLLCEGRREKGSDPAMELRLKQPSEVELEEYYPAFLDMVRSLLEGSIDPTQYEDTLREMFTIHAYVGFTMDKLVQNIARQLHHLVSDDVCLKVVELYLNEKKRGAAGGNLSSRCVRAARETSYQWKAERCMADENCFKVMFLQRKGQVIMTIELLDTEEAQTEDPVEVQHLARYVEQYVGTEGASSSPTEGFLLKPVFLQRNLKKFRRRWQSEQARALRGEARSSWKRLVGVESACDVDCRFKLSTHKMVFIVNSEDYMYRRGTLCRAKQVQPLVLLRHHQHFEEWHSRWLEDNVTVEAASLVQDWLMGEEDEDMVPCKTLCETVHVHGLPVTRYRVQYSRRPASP
# UniProt Q587I9: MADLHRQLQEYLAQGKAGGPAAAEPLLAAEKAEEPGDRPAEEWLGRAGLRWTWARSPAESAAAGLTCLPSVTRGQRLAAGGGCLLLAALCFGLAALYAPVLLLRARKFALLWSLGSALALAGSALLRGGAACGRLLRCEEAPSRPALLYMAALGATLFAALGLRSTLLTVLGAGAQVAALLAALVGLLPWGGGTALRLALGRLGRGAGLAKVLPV
# UniProt O14796: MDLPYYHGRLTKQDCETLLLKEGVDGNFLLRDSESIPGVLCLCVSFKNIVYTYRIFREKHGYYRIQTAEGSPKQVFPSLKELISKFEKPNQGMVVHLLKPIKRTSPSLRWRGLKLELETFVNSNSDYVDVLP
# UniProt Q96JX3: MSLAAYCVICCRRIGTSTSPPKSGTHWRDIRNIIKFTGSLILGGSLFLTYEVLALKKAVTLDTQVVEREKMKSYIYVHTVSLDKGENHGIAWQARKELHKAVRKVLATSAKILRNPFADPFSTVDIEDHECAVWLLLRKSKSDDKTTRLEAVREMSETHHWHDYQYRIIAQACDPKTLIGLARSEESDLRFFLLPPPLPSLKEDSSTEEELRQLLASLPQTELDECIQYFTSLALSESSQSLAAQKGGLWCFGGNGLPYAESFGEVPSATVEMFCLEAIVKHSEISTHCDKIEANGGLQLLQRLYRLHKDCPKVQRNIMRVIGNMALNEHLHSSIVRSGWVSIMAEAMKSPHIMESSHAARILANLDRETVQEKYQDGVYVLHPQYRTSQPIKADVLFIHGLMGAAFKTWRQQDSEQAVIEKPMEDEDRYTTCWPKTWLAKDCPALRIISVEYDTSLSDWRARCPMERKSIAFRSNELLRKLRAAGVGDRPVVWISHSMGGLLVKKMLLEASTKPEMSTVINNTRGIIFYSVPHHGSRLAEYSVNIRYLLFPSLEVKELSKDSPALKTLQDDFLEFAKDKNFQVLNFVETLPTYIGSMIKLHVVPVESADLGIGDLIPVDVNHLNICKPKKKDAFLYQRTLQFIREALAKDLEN
# UniProt Q8NC51: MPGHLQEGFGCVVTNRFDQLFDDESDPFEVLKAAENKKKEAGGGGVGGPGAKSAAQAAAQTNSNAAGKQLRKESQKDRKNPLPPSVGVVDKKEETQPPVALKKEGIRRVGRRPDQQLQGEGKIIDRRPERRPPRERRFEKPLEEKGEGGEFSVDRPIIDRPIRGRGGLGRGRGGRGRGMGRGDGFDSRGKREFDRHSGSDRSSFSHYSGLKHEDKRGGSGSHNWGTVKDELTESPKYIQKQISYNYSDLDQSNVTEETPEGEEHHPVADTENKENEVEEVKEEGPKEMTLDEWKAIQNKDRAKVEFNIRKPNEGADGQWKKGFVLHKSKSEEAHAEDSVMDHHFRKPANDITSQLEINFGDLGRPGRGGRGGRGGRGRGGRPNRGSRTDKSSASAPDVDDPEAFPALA
# UniProt P36952: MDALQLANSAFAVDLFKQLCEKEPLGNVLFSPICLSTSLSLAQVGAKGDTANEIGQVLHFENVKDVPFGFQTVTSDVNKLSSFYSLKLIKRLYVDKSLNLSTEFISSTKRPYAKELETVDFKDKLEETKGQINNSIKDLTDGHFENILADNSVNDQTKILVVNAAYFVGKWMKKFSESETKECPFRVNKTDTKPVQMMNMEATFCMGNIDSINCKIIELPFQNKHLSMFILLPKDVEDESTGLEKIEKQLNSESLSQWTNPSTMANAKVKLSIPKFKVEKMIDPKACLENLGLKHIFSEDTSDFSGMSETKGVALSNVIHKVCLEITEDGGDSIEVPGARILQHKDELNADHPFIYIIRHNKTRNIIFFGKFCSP
# UniProt O60779: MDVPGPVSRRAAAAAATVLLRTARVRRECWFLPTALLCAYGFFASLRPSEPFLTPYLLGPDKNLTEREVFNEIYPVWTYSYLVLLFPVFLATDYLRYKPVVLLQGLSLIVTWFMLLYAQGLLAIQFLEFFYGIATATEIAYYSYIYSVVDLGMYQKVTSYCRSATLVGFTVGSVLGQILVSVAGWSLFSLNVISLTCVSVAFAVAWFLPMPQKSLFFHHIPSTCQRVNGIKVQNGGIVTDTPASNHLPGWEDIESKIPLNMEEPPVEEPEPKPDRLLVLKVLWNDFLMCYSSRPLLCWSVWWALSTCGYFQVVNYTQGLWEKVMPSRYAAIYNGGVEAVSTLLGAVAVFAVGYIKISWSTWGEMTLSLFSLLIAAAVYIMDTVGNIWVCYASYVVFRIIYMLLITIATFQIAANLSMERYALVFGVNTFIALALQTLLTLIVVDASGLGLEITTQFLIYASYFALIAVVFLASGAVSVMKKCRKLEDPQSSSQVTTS
# UniProt Q01105, whole entry, looked up: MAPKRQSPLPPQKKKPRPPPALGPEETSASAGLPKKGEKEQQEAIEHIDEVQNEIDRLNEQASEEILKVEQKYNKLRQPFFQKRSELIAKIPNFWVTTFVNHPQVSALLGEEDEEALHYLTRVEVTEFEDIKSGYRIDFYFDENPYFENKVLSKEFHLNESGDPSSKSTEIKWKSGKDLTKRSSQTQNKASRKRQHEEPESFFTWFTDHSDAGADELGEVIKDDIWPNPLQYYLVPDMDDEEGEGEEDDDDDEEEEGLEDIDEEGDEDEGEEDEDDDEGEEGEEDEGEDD
# UniProt Q6PI26: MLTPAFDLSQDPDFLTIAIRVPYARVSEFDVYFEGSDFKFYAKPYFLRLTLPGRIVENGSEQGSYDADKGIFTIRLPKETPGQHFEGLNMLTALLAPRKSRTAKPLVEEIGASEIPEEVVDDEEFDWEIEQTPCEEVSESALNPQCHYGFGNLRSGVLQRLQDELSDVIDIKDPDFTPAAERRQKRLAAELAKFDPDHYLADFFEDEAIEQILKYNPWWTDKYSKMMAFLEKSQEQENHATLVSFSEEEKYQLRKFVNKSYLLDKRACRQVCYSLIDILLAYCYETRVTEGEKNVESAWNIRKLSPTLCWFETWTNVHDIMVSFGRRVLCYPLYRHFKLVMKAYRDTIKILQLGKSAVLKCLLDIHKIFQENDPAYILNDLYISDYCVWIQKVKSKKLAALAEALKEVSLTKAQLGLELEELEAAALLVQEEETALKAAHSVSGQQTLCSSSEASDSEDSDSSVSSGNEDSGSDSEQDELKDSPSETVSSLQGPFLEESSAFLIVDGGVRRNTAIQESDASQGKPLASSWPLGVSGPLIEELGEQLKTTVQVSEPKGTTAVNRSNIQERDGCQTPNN
# Some of the results follow.
# Experiments:
# Test in all cases: log2 fold change, soluble protein after heating vs DMSO (PISA); higher = thermal stabilisation; K562 lysate, 10 uM; active = over 0.2 and 3.5 SD of the protein, either way, in both replicates (recomputed)
# vorinostat = compound: O=C(CCCCCCC(=O)Nc1ccccc1)NO [vorinostat]
# Summary of the method: (§1)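 Soluble protein was defined as the supernatant remaining after 21,000xg for 90 min, following pooling of heated aliquots and adjustment to 0.5% NP-40 at 4°C. Before that, crude K562 extract at 1 mg/mL protein in PBS pH 7.4 with 1 mM MgCl2 was treated with 10 μM compound for 30 min and heated for 3 min across 48°C-58°C. Quantification used TMTpro 16plex LC-MS/MS with channel sums equalised, and values are log-two fold changes in thermal stability relative to solvent controls from duplicates.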
# silmitasertib = compound: O=C(O)c1ccc2c(c1)nc(Nc1cccc(Cl)c1)c1ccncc12 [silmitasertib]
# Summary of the method: as §1
# [1] = compound: O=C1NC(=O)C(c2cnc3ccccn23)=C1c1cn2c3c(cc(F)cc13)CN(C(=O)N1CCCCC1)CC2
# Summary of the method: as §1
# entospletinib = compound: c1cn2cc(-c3ccc4cn[nH]c4c3)nc(Nc3ccc(N4CCOCC4)cc3)c2n1 [entospletinib]
# Summary of the method: as §1
# [2] = compound: NCC(=O)Nc1ccc(-n2nc(C(F)(F)F)cc2-c2ccc3c(ccc4ccccc43)c2)cc1
# Summary of the method: as §1
Target,log2 fold change (vorinostat),log2 fold change (silmitasertib),log2 fold change [1],log2 fold change (entospletinib),log2 fold change [2]
SERPINA12 (UniProt Q8IW75),inactive: 0.495,inactive: -0.307,inactive: 0.471,–,–
SGO2 (UniProt Q562F6),–,–,inactive: 0.009,inactive: 0.01,–
SHB (UniProt Q15464),active: -0.356,inactive: 0.117,inactive: 0.044,–,–
SESTD1 (UniProt Q86VW0),–,–,inactive: -0.109,–,–
SIN3B (UniProt O75182),–,–,inactive: 0.559,inactive: -0.089,inactive: 0.195
SFT2D3 (UniProt Q587I9),inactive: 0.154,inactive: -0.054,inactive: -0.03,inactive: 0.076,–
SH2D1B (UniProt O14796),–,–,inactive: -0.029,inactive: 0.032,inactive: -0.007
SF3B2 (UniProt E9PJ04),inactive: 0.269,inactive: 0.019,–,–,–
SH2B1 (UniProt Q9NRF2),inactive: -0.146,inactive: 0.021,inactive: -0.031,–,–
SERAC1 (UniProt Q96JX3),inactive: 0.236,inactive: 0.155,–,inactive: -0.001,–
SERBP1 isoform 3 (UniProt Q8NC51),inactive: 0,inactive: -0.085,inactive: -0.052,inactive: 0.032,–
SGSM3 isoform 2 (UniProt Q96HU1),inactive: -0.216,inactive: -0.027,inactive: 0.022,–,–
SERPINF2 (UniProt P08697),–,–,inactive: 0.108,inactive: -0.048,inactive: 0.103
SERPINB5 (UniProt P36952),inactive: 0.005,inactive: -0.38,inactive: 0.316,–,–
SLC19A2 (UniProt O60779),–,–,–,inactive: -0.01,–
SET isoform 3 (UniProt Q01105),–,–,–,inactive: -0.194,–
SHQ1 (UniProt Q6PI26),inactive: 0.124,inactive: -0.048,inactive: -0.038,–,–

# 2 entries drawn at random from the list so far, as already listed:
Target,log2 fold change (vorinostat),log2 fold change (silmitasertib),log2 fold change [1],log2 fold change (entospletinib),log2 fold change [2]
SESTD1 (UniProt Q86VW0),–,–,inactive: -0.109,–,–
SHB (UniProt Q15464),active: -0.356,inactive: 0.117,inactive: 0.044,–,–
